Measured values published in US6884777B1, “Method for treating respiratory distress syndrome” (The Nemours Foundation, priority 2000, dated 2005).
For at least one compound, name, drawing or mass did not settle the structure.

Legend:
type II alveolar cells = assay: Histologic analysis of fetal lung after antenatal treatment (alkaline phosphatase staining); format: in vivo, rat; conditions: antenatal treatment for 48 h, alkaline phosphatase staining (FIG. 6)
Description: FIG. 6 depicts the effect of antenatal treatment with leptin or dexamethasone on fetal lung morphology. Fetal lung sections were stained with a histochemical stain for alkaline phosphatase, which identifies type II cells. Control, no leptin; dexamethasone (6 mg/ml for 48 h); leptin (0.25 mg/ml for 48 h).
Histologic analysis of the lung tissue was done to determine the basis for the increased fetal lung weight. Type II cells were identified by alkaline phosphatase staining as previously described (Post and Smith, Am. Rev. Respir. Dis. 137: 525-30, 1988). Unfixed frozen 5 μm sections of fetal lung tissue were stained histochemically with alkaline phosphatase at pH 8.74 to identify type II alveolar cells. Slides were incubated for 60 minutes at 37° C. in 25 ml of 0.2M Tris-HCl buffer and 25 ml of deionized water, 5 mg of Naphthol AS-BI phosphate, 0.1 ml dimethylformamide, and 30 mg of fast red TR. The slides were then rinsed in 3 changes of deionized water, counterstained for 30 seconds in Harris hematoxylin and blued in running water for 3-5 minutes. Slides were mounted from water in Advantage™.

[1] = tested on: leptin receptor OB-Rb mRNA; assay: RT-PCR of leptin receptor expression in day 17 fetal lung explant cultures; format: cell-based, rat; conditions: d17 fetal lung explants, 3 days; 1 ng/ml leptin or 10 nM dexamethasone
Description: FIG. 4 depicts RT-PCR analysis of leptin receptor expression in day 17 fetal lung explant cultures. Total RNA was reverse transcribed and amplified with either the short (OB-Ra) or the long (OB-Rb) form of the leptin receptor. Day 0 (Cd0) represents the time of initiation of culture. The fetal lung explants were exposed for 3 days to either control medium (Cd3), 1 ng/ml leptin (Ld3), or 10 nM dexamethasone (Dexd3). The size of the OB-Ra RT/PCR product is 479 bp and OB-Rb is 262 bp.
To explore the effect of gestational age on surfactant production in response to leptin, we exposed younger lung explant cultures (d17) to 1 ng/ml leptin. Total RNA was extracted by homogenizing the explants in 4M guanidine thiocyanate, applying the lysate on a Qiagen RNeasy column (Qiagen, Chatsworth, Calif.), and recovering total RNA according to the manufacturer's instructions. RNA was quantified by measurement of absorbancy at 260 nm (A260). The quality of RNA was assessed by the A260/A280 ratio and by separation on agarose gels. Total RNA (1 μg) was brought up to 10 μl in DEPC-treated water. […]

C[C@@H]1C[C@H]2[C@@H]3CCC4=CC(=O)C=C[C@]4(C)[C@@]3(F)[C@@H](O)C[C@]2(C)[C@@]1(O)C(=O)CO [Dexamethasone, dexamethasone, reference compound]
number of type II alveolar cells in fetal lung (type II alveolar cells): increase in the number of type II alveolar cells
OB-Rb mRNA levels [1]: increases
